The species entered for assay [1] is Sus scrofa. Put plainly: Inhibition of porcine heart malate dehydrogenase assessed as reduction in enzyme inhibition at 3 times IC50 preincubated for 5 min followed by nicotinamide adenine dinucleotide addition and monitered for 90 sec in presence of 0.01% Triton-X100 by spectrophotometric method relative to control. The assay is classed as tissue-based. Set-up: scale not given: the % may be the effect or the level left. The method, boiled down:
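After a 5 min room-temperature incubation, the rate was read over 90 s and compared with the negative control. The value is the percent change in inhibition with detergent; triplicate.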

Assay [2] in a line: Inhibition of porcine heart malate dehydrogenase preincubated for 5 min followed by nicotinamide adenine dinucleotide addition and monitered for 90 sec by spectrophotometric method. The class given is tissue-based, Sus scrofa. The method, boiled down:
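Porcine heart MDH was used at 2 nM final in 50 mM KPi pH 7 at room temperature. Compound was added from 100× DMSO stock (1% DMSO final) and incubated 5 min. Reactions were followed 90 s spectrophotometrically, with initial rates divided by the negative-control rate. Concentration–response used three replicates per concentration to give IC50 and Hill slope.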

Assay [3] is described as follows: Inhibition of SARS CoV2 C-terminal His6-tagged 3CL protease (3264 to 3569 residues) expressed in Escherichia coli BL21 DE3 using rr-K(MCA)-ATLQAIAS-K(DNP)-COOH preincubated for 1 hr followed by substrate addition and measured after 1 hr in presence of 0.05% Tween-20. Set-up: species or system Severe acute respiratory syndrome coronavirus 2. The method, boiled down: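 Purified recombinant 3CL-Pro at 50 nM final with quenched fluorogenic peptide at 10 μM final (KM), in 20 mM Tris, 150 mM NaCl, 1 mM EDTA, 1 mM DTT, 0.05% Tween-20, pH 7.4. Drug and enzyme were preincubated 1 h at 37 °C, then substrate was added and fluorescence followed 1 h.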

Assay [4] in a line: Inhibition of SARS-Cov2 N-terminal full-length MBP-tagged 3CL protease expressed in Escherichia coli using DABCYL-KTSAVLQSGFRKME-EDANS as substrate preincubated for 30 mins followed by substrate addition and measured after 3 hrs by fluorescence assay. The arrangement: species or system Severe acute respiratory syndrome coronavirus 2.

The values below come from ChEMBL document CHEMBL5029184, “Colloidal Aggregators in Biochemical SARS-CoV-2 Repurposing Screens” (J Med Chem, 2021).

The term IC50 denotes the concentration that gives 50% inhibition.

As for `O=C1CCc2ccc(OCCCCN3CCN(c4cccc(Cl)c4Cl)CC3)cc2N1`, the Activity in assay [1] amounted to 91%.

As for `Clc1ccccc1C(c1ccccc1)(c1ccccc1)n1ccnc1` [CLOTRIMAZOLE], in assay [1], the Activity came to 53%. Besides, the IC50 in assay [2] was 22 µM; in assay [3], more than 200 µM; in assay [4], 39.8 µM.
